The other results are listed elsewhere or left out.
What was measured:
Assay in all cases: log2 fold change, soluble protein after heating vs DMSO (PISA); higher = thermal stabilisation; K562 lysate, 10 uM; active = over 0.2 and 3.5 SD of the protein, either way, in both replicates (recomputed)
erlotinib = compound: C#Cc1cccc(Nc2ncnc3cc(OCCOC)c(OCCOC)cc23)c1 [erlotinib]
Method in brief: (§1)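 A 30 min treatment with 10 μM compound was applied to crude K562 extract at 1 mg/mL protein in PBS pH 7.4 with 1 mM MgCl2. Heating for 3 min spanned 48°C-58°C, after which aliquots were pooled, adjusted to 0.5% NP-40 at 4°C and spun at 21,000xg for 90 min. TMTpro 16plex LC-MS/MS of the supernatant, with channel sums equalised, gave values recorded as log-two fold change in thermal stability against solvent controls, from duplicates.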

By UniProt entry, the sequences of proteins in these tests, tags left out. Where a name states a change or a piece, a line headed by the entry shows the natural chain unless it says otherwise.
UniProt P41208: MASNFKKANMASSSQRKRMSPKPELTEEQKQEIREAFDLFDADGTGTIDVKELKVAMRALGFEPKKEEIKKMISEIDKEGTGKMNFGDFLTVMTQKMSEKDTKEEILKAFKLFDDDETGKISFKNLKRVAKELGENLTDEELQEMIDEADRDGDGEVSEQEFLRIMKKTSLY
UniProt Q9BS16: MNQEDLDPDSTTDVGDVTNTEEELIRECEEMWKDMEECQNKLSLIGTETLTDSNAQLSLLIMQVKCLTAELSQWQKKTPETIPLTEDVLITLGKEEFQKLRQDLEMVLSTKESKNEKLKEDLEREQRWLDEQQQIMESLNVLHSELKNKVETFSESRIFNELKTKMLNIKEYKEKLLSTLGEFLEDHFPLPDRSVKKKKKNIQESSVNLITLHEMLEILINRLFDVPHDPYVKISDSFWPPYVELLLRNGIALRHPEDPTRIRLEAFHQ
UniProt Q8N2Z9: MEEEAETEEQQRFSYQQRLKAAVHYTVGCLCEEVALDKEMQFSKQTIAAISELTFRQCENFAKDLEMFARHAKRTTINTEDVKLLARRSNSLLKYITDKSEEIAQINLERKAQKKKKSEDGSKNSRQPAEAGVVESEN
UniProt Q9NYV4, whole entry, looked up: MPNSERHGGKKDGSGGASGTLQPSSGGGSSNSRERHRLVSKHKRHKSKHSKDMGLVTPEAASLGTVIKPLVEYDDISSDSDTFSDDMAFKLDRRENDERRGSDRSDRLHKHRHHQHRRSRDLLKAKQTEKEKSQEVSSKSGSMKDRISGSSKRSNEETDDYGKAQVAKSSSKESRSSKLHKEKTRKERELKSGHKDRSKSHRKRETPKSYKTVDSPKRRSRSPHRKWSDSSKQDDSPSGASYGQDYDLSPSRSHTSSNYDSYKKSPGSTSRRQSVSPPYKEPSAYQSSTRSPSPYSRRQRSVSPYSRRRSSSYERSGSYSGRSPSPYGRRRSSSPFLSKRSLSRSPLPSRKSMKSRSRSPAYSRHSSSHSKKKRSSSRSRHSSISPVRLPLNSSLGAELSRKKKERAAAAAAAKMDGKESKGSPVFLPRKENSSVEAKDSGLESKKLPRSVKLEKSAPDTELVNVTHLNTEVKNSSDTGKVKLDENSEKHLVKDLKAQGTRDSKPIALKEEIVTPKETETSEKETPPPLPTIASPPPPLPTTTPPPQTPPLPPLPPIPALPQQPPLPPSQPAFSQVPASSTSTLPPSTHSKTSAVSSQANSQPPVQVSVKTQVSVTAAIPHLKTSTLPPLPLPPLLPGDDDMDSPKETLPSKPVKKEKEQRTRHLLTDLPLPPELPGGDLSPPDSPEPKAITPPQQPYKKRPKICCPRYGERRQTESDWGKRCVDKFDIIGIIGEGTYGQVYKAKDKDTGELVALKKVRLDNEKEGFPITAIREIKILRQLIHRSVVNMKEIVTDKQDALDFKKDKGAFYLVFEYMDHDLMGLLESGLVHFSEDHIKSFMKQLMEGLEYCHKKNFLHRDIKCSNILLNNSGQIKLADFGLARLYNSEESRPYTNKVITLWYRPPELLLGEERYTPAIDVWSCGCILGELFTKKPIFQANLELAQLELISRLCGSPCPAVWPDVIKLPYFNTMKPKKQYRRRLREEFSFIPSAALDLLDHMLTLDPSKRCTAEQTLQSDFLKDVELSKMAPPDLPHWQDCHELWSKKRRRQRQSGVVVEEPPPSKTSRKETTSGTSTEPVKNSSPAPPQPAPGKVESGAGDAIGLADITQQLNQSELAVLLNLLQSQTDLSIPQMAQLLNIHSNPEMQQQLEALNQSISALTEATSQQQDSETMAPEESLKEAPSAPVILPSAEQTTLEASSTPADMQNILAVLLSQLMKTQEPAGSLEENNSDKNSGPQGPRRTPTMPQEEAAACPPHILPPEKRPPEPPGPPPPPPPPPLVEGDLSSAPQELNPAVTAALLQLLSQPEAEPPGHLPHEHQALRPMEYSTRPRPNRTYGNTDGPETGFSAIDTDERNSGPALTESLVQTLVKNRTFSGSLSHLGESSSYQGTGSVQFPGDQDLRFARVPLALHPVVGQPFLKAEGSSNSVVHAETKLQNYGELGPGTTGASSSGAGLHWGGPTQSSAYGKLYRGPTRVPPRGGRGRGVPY
UniProt Q03701: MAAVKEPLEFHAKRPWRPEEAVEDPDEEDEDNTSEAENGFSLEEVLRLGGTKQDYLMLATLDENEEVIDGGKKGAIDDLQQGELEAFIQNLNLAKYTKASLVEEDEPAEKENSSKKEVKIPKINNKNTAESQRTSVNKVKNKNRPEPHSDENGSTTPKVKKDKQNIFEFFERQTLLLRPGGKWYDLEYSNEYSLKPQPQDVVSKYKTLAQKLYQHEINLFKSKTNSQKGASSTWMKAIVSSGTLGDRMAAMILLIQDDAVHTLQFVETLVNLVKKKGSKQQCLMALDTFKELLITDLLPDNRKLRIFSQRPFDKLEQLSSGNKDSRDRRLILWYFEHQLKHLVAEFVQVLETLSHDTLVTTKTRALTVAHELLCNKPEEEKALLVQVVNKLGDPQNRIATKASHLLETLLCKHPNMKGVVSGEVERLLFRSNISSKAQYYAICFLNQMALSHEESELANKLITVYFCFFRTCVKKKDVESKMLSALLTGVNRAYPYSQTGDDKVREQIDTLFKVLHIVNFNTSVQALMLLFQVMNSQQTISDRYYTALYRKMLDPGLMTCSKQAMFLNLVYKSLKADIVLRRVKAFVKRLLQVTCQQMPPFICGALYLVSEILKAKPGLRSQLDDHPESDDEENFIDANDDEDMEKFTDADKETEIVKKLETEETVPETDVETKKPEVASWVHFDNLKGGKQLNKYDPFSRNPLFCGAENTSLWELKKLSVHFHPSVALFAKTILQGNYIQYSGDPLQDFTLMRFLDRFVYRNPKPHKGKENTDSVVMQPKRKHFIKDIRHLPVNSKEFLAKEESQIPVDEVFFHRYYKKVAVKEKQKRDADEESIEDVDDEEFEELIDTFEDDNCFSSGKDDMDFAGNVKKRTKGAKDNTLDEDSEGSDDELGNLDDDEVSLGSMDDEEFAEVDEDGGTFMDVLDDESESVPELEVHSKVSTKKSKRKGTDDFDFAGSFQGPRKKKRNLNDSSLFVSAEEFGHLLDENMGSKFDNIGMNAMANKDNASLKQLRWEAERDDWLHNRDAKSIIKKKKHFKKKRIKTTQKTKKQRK
UniProt Q00587: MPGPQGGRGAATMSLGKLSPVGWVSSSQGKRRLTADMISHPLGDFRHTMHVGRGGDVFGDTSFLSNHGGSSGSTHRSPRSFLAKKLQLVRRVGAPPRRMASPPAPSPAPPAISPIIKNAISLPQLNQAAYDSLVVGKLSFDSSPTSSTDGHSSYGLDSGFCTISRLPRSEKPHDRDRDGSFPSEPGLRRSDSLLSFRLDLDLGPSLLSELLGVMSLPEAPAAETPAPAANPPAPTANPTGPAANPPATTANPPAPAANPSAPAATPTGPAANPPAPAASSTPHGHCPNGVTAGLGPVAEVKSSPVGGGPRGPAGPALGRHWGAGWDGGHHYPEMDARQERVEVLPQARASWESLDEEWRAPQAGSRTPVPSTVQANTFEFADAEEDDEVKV
UniProt P23528, whole entry, looked up: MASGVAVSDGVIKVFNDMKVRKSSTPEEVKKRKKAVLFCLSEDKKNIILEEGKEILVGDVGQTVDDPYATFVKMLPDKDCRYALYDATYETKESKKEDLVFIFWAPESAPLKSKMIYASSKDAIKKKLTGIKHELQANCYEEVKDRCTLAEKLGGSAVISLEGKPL
UniProt P50750, whole entry, looked up: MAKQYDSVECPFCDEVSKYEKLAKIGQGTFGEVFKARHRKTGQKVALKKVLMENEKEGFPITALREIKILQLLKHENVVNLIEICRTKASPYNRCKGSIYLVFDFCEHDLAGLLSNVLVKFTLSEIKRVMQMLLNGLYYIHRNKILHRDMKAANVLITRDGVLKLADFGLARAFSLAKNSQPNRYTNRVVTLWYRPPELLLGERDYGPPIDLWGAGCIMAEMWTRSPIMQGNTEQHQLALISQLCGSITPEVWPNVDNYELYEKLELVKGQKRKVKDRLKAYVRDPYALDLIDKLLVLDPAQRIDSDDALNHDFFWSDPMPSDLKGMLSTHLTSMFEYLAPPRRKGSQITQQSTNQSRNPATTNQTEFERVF
UniProt Q53EZ4: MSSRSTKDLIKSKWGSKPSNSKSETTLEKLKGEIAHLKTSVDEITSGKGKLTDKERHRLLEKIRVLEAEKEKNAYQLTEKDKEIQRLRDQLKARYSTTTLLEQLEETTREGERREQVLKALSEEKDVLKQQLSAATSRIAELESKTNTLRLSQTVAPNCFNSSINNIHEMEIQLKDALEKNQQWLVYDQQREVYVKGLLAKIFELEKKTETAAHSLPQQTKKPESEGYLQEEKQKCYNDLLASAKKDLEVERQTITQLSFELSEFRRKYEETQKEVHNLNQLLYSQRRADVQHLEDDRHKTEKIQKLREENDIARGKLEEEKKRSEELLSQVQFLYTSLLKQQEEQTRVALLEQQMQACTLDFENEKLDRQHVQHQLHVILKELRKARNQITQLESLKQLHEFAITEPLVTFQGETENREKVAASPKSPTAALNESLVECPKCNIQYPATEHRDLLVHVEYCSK
UniProt Q14004, whole entry, looked up: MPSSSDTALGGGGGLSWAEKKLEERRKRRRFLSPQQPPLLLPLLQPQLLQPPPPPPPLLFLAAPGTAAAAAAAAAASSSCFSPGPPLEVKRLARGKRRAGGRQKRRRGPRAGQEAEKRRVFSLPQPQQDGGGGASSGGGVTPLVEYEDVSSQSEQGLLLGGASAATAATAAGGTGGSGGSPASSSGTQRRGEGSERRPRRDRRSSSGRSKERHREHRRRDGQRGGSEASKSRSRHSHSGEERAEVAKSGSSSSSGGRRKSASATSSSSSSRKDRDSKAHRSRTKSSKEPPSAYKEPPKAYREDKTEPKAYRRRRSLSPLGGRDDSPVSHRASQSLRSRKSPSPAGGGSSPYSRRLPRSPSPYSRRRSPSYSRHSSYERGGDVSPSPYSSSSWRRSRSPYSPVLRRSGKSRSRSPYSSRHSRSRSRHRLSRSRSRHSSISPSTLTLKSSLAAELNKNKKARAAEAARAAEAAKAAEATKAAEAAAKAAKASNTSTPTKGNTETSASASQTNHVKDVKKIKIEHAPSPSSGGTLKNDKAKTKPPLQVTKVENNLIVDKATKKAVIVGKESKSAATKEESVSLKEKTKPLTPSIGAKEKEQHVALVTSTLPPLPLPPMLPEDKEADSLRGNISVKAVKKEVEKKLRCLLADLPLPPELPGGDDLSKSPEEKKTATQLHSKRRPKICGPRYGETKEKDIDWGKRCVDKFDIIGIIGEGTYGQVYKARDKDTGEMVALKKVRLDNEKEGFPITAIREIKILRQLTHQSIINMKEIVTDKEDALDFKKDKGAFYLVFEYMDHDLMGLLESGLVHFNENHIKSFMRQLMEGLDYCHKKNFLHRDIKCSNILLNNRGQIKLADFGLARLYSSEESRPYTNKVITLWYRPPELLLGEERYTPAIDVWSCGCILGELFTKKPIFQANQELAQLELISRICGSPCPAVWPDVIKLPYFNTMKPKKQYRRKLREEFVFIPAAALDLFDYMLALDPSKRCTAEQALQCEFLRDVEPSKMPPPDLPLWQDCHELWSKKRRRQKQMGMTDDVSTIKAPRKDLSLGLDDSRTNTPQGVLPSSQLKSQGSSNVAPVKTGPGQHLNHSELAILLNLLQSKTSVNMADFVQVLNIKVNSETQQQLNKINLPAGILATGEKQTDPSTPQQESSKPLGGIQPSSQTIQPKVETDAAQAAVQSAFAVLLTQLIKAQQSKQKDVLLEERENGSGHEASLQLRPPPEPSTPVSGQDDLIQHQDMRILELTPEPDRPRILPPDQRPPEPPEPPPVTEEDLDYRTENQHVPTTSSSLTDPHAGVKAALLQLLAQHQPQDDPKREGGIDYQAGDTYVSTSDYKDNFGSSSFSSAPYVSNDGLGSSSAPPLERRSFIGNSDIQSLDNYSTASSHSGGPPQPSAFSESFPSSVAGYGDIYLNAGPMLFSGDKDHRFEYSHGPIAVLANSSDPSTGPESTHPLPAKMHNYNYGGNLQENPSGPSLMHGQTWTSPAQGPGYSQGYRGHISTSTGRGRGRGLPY
UniProt O00748: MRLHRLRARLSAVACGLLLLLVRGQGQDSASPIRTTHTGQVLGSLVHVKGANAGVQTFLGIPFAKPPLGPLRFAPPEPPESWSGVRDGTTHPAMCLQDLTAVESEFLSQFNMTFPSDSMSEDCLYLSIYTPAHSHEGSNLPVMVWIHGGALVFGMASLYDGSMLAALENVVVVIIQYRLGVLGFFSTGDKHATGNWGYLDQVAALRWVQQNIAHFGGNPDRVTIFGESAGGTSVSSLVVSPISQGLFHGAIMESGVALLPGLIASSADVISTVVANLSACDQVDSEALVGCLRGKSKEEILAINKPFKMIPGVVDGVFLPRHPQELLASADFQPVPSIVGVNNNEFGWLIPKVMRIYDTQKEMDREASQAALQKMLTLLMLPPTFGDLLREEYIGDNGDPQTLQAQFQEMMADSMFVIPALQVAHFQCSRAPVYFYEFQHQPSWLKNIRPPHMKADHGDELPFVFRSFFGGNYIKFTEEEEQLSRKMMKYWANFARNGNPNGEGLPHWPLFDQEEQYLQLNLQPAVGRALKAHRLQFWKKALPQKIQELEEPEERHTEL

[1] = compound: C/C(=N\NC(=O)C1=CC(=CC=C1)S(=O)(=O)N2CCOCC2)/C3=C(C=CC(=C3)Cl)O
Method in brief: as §1

[2] = compound: C1=CC(=CC=C1C2=NC3=C(N2)C=C(C=C3)C(=O)N)OC4=CC=C(C=C4)Cl
Method in brief: as §1

[3] = compound: C1=CC2=C(C=CC(=C2)/C=C\3/C(=O)NC(=NCC4=CC=CS4)S3)N=C1
Method in brief: as §1

[4] = compound: C1=CC2=NC=CN=C2C=C1/C=C/3\C(=O)NC(=O)S3
Method in brief: as §1

[5] = compound: C1=CC=C(C=C1)C2=NC(=C(N2)C3=CC=NC=C3)C4=CC(=C(C=C4)Cl)O
Method in brief: as §1

[6] = compound: C1=CC=C2C(=C1)C3=NNC4=CC=CC(=C43)C2=O
Method in brief: as §1

[7] = compound: C1CCN(C1)C(=O)NC2=CC=CC(=C2)NC3=NC=C(C(=N3)NCCC4=CN=CN4)Br
Method in brief: as §1

[8] = compound: C1CN(CCC1(CC2=CC=C(C=C2)Cl)N)C3=NC=NC4=C3C=CN4
Method in brief: as §1

IRAK-1-4 Inhibitor I = compound: C1COCCN1CCN2C3=CC=CC=C3N=C2NC(=O)C4=CC(=CC=C4)[N+](=O)[O-] [IRAK-1-4 Inhibitor I]
Method in brief: as §1

ibrutinib = compound: C=CC(=O)N1CCC[C@@H](n2nc(-c3ccc(Oc4ccccc4)cc3)c3c(N)ncnc32)C1 [ibrutinib]
Method in brief: as §1

[9] = compound: CC(=O)c1cnc2ccc(-c3cc(Cl)c(O)c(Cl)c3)nc2c1N[C@H]1CC[C@H](CN(C)C)CC1
Method in brief: as §1

ralimetinib = compound: CC(C)(C)Cn1c(N)nc2ccc(-c3[nH]c(C(C)(C)C)nc3-c3ccc(F)cc3)nc21 [ralimetinib]
Method in brief: as §1

[10] = compound: CC(C)(O)CC(=O)NCCn1ccc2ncnc(Nc3ccc(Oc4cccc(C(F)(F)F)c4)c(Cl)c3)c21
Method in brief: as §1

[11] = compound: CC(C)C1=C2N=C(C=C(N2N=C1)NCC3=CC=CC=C3)NCCCCCCN
Method in brief: as §1

[12] = compound: CC1=C(C(CC(=O)N1)C2=CC=C(C=C2)C(F)(F)F)C(=O)NC3=C(C=C4C(=C3)C=NN4)F
Method in brief: as §1

[13] = compound: CC1=C(C2=C(C=C1)C(=O)C3=CC=CC=C3N2CCCN)C
Method in brief: as §1

[14] = compound: CC1=C(C=C(C=C1)NC(=O)C2=CC(=CC=C2)C(C)(C)C#N)NC3=CC4=C(C=C3)N=CN(C4=O)C
Method in brief: as §1

[15] = compound: CC1=C(C=C(C=C1)NC(=O)C2=CC(=CC=C2)N(C)C)NC(=O)C3=CC=C(C=C3)O
Method in brief: as §1

[16] = compound: CC1=CC=C(C=C1)SC2=C3C=C(SC3=CN=C2)C(=O)N
Method in brief: as §1

| Target | log2 fold change (erlotinib) | log2 fold change [1] | log2 fold change [2] | log2 fold change [3] | log2 fold change [4] | log2 fold change [5] | log2 fold change [6] | log2 fold change [7] | log2 fold change [8] | log2 fold change (IRAK-1-4 Inhibitor I) | log2 fold change (ibrutinib) | log2 fold change [9] | log2 fold change (ralimetinib) | log2 fold change [10] | log2 fold change [11] | log2 fold change [12] | log2 fold change [13] | log2 fold change [14] | log2 fold change [15] | log2 fold change [16] |
| --- | --- | --- | --- | --- | --- | --- | --- | --- | --- | --- | --- | --- | --- | --- | --- | --- | --- | --- | --- | --- |
| CDC73 (UniProt Q6P1J9) | inactive: 0.033 | inactive: -0.048 | inactive: 0.022 | inactive: 0.014 | inactive: -0.047 | inactive: 0.002 | inactive: -0.032 | inactive: -0.038 | inactive: 0.016 | inactive: -0.038 | inactive: -0.029 | inactive: 0.021 | inactive: 0.019 | inactive: 0.002 | inactive: 0.03 | inactive: -0.003 | inactive: 0.031 | inactive: -0.008 | inactive: 0.029 | inactive: -0.003 |
| CETN2 (UniProt P41208) | inactive: 0.02 | inactive: 0.018 | inactive: 0.017 | inactive: -0.089 | inactive: -0.066 | inactive: -0.007 | inactive: -0.043 | inactive: -0.007 | inactive: 0.012 | inactive: -0.068 | inactive: -0.016 | inactive: 0.005 | inactive: 0.089 | inactive: 0.085 | inactive: -0.024 | inactive: 0.047 | inactive: -0.026 | inactive: -0.078 | inactive: 0.066 | inactive: 0.034 |
| CENPK (UniProt Q9BS16) | inactive: -0.036 | inactive: -0.097 | inactive: 0.063 | inactive: -0.055 | inactive: 0.007 | inactive: -0.024 | inactive: -0.088 | inactive: -0.018 | inactive: 0.01 | inactive: 0.011 | inactive: 0.024 | inactive: 0.09 | inactive: -0.003 | inactive: -0.004 | inactive: 0.004 | inactive: 0.018 | inactive: -0.011 | inactive: -0.047 | inactive: 0.051 | inactive: -0.112 |
| CENPS (UniProt Q8N2Z9) | inactive: -0.029 | inactive: -0.039 | inactive: 0.034 | inactive: -0.023 | inactive: -0.004 | inactive: 0.03 | inactive: 0.043 | inactive: 0.008 | inactive: 0.023 | inactive: -0.018 | inactive: -0.114 | inactive: -0.064 | inactive: -0.002 | inactive: -0.071 | inactive: -0.019 | inactive: -0.197 | inactive: 0.004 | inactive: 0.06 | inactive: 0.017 | inactive: -0.069 |
| CDK12 (UniProt Q9NYV4) | inactive: 0.018 | inactive: -0.063 | inactive: 0.036 | inactive: -0.02 | inactive: -0.053 | inactive: 0.005 | inactive: 0.049 | inactive: 0.075 | inactive: -0.004 | inactive: 0.008 | inactive: 0.028 | inactive: -0.025 | inactive: 0.004 | inactive: -0.038 | inactive: 0.054 | inactive: -0.067 | inactive: -0.039 | inactive: 0.007 | inactive: -0.003 | inactive: 0.001 |
| CEBPZ (UniProt Q03701) | inactive: 0.028 | inactive: 0.038 | inactive: -0.018 | inactive: -0.007 | inactive: 0.039 | inactive: -0.012 | inactive: 0.068 | inactive: 0.012 | inactive: 0.023 | inactive: 0.001 | inactive: -0.012 | inactive: -0.007 | inactive: 0.013 | inactive: -0.034 | inactive: 0.041 | inactive: 0.033 | inactive: -0.002 | inactive: -0.011 | inactive: 0.024 | inactive: 0.008 |
| CDC42EP1 (UniProt Q00587) | inactive: 0.144 | inactive: -0.034 | inactive: 0.204 | inactive: -0.14 | inactive: 0.023 | inactive: -0.012 | inactive: -0.063 | inactive: -0.087 | inactive: 0.038 | inactive: -0.046 | inactive: -0.022 | inactive: 0.052 | inactive: -0.047 | inactive: -0.033 | inactive: 0.03 | inactive: 0.147 | inactive: -0.197 | inactive: -0.027 | inactive: 0.096 | inactive: -0.023 |
| CFL1 (UniProt P23528) | inactive: -0.032 | inactive: -0.004 | inactive: -0.02 | inactive: 0.023 | inactive: -0.004 | inactive: -0.009 | inactive: 0.063 | inactive: 0.026 | inactive: -0.007 | inactive: -0.002 | inactive: -0.025 | inactive: 0.015 | inactive: -0.014 | inactive: -0.008 | inactive: -0.007 | inactive: -0.036 | inactive: 0.02 | inactive: -0.03 | inactive: -0.019 | inactive: -0.004 |
| CDK9 isoform 2 (UniProt P50750) | inactive: -0.055 | inactive: -0.054 | inactive: 0.195 | inactive: 0.019 | inactive: 0.02 | inactive: -0.01 | inactive: 0.019 | inactive: 0.102 | inactive: 0.005 | inactive: -0.002 | inactive: -0.042 | inactive: 0.269 | inactive: 0.013 | inactive: 0.026 | inactive: -0.092 | inactive: -0.026 | inactive: -0.021 | inactive: -0.032 | inactive: 0.004 | inactive: -0.021 |
| CEP131 (UniProt Q9UPN4) | inactive: -0.26 | inactive: -0.014 | inactive: 0.052 | inactive: -0.065 | inactive: 0.063 | inactive: 0.004 | inactive: -0.071 | inactive: 0.004 | inactive: -0.06 | inactive: 0.034 | inactive: 0.025 | inactive: -0.043 | inactive: -0.052 | inactive: -0.017 | inactive: 0.066 | inactive: -0.035 | inactive: 0.002 | inactive: 0.095 | inactive: 0.04 | inactive: 0.004 |
| CDK19 (UniProt Q9BWU1) | inactive: 0.007 | inactive: -0.272 | inactive: 0.024 | inactive: 0.098 | inactive: 0.039 | inactive: -0.015 | inactive: 0.254 | inactive: -0.075 | inactive: -0.051 | inactive: -0.019 | inactive: -0.115 | inactive: 0.088 | inactive: 0.056 | inactive: 0.048 | inactive: 0 | inactive: -0.255 | inactive: -0.033 | inactive: 0.09 | inactive: -0.031 | inactive: -0.003 |
| CEP55 (UniProt Q53EZ4) | inactive: -0.08 | inactive: -0.07 | inactive: 0.028 | inactive: -0.003 | inactive: -0.073 | inactive: 0.034 | inactive: 0.062 | inactive: 0.122 | inactive: -0.046 | inactive: -0.013 | inactive: -0.016 | inactive: 0.063 | inactive: 0 | inactive: -0.027 | inactive: -0.032 | inactive: -0.019 | inactive: 0.025 | inactive: 0.005 | inactive: 0.107 | inactive: -0.043 |
| CDK13 (UniProt Q14004) | inactive: -0.136 | inactive: -0.041 | inactive: -0.089 | inactive: -0.052 | inactive: 0.01 | inactive: -0.071 | inactive: 0.127 | inactive: 0.091 | inactive: -0.025 | inactive: -0.044 | inactive: -0.038 | active: 0.271 | inactive: 0.031 | inactive: 0.141 | inactive: -0.056 | inactive: -0.039 | inactive: 0.041 | inactive: -0.104 | inactive: -0.028 | inactive: -0.022 |
| CES2 isoform 4 (UniProt O00748) | inactive: -0.014 | inactive: 0.006 | inactive: -0.012 | inactive: 0.041 | inactive: -0.035 | inactive: 0.087 | inactive: -0.067 | inactive: 0.053 | inactive: -0.031 | inactive: 0.075 | active: 0.431 | inactive: -0.048 | inactive: -0.031 | inactive: 0.057 | inactive: -0.004 | inactive: 0.202 | inactive: -0.128 | inactive: 0.079 | inactive: -0.019 | inactive: -0.025 |
| CFL2 (UniProt Q9Y281) | inactive: 0.009 | inactive: 0.017 | inactive: 0.014 | inactive: -0.026 | inactive: 0.008 | inactive: -0.01 | inactive: 0.027 | inactive: -0.044 | inactive: 0.035 | inactive: 0.007 | inactive: 0 | inactive: -0.016 | inactive: 0.009 | inactive: -0.084 | inactive: -0.013 | inactive: 0.005 | inactive: -0.135 | inactive: 0.007 | inactive: 0.03 | inactive: -0.021 |

Taken from above:
log2 fold change (erlotinib), CEP55 (UniProt Q53EZ4) reads inactive: -0.08
log2 fold change [3], CDK13 (UniProt Q14004) reads inactive: -0.052
